Experimental findings from publication PMC10313721 are described below.

By UniProt entry, the sequences of proteins in these tests, tags left out. Residues count along the entry.
UniProt P17931: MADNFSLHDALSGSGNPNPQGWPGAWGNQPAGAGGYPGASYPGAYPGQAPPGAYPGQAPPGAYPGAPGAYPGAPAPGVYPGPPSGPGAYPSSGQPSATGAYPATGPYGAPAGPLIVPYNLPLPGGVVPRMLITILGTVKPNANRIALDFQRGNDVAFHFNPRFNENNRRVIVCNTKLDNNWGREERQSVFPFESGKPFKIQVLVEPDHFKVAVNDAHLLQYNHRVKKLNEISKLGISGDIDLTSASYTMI
UniProt P01579, residues 24-161: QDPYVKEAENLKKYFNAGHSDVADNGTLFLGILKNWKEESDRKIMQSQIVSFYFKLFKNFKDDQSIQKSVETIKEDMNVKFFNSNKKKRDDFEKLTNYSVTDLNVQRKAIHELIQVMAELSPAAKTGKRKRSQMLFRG

Results are given in words; binding and its absence hold for the method and conditions named. For some of these results: In cells and extracts the contact can be indirect. Some binding calls cover weakened binding; strength is not graded here. For some of these results: Tags and fused reporters may be left off the sequences shown.

One experiment deals with T1, Flag-RNF8 (human) (UniProt O76064).
T1 sequence: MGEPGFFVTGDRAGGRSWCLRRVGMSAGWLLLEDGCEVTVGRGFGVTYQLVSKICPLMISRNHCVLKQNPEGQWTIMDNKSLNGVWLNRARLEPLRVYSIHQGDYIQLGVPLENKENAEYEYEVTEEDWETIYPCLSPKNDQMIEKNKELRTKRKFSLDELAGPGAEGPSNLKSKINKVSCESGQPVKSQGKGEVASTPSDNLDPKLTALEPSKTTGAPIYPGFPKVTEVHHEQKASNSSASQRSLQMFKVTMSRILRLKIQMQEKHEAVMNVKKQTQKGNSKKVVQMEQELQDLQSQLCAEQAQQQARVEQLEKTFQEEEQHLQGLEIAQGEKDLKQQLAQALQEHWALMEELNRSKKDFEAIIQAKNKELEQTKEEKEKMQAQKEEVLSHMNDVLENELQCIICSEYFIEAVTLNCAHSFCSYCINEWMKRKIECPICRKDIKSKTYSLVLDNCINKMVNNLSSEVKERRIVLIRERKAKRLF
Kind of experiment: co-IP; Flag-RNF8 and HA-gal-3 over-expressed in 293 T and A375 cells; lysates in IP binding buffer, protein A/G magnetic beads and antibody, 4 h at 4 °C, western blot.

Experiment [1] has as its target recombinant human gal-3 (human) (UniProt P17931). In words: pull-down; Dynabeads M-280 Streptavidin coated with saturating amounts of gal-3; different amounts of beads incubated with the cytokine in PBS for 1 h at room temperature; after magnetic sorting the cytokine left in the supernatant measured by ELISA; both purified.
The target is the same in experiment [2]. Kind of experiment: pull-down; as a1, but gal-3-coated beads and cytokine incubated in the presence of 100 mM lactose or 50 mM LacNAc (LAC); cytokine in the supernatant measured by ELISA; both purified.
For experiment [3], the target named is T2, endogenous RNF8 (human (endogenous in 293 T and A375)) (UniProt O76064).
T2 sequence: T1 sequence
Kind of experiment: co-IP; endogenous proteins; 293 T and A375 lysates in IP binding buffer, protein A/G magnetic beads and antibody, 4 h at 4 °C, western blot. In general terms: A western blot detects proteins with antibodies after separation by electrophoresis.

In the case of HA-gal-3 (from UniProt P17931 1-250), in the experiment with Flag-RNF8 (human), the binding entry was “binds”.
For IFN-γ (from UniProt P01579 24-161), the binding entry in experiment [1] was “binds”; in experiment [2], “no binding (condition: with 100 mM lactose or 50 mM LAC)”.
For “endogenous gal-3 (from UniProt P17931 1-250)”, in experiment [3], the binding result is reported as “binds”.
